Test results: article PMC13579993
No constants are given. Whether binding was seen depends on the method and setting. In cells and extracts the contact can be indirect. Some binding calls cover weakened binding; strength is not graded here.

The chains behind the UniProt entries cited, without tags or fusion partners. Residues count along the entry.
UniProt P32248, residues 25-378: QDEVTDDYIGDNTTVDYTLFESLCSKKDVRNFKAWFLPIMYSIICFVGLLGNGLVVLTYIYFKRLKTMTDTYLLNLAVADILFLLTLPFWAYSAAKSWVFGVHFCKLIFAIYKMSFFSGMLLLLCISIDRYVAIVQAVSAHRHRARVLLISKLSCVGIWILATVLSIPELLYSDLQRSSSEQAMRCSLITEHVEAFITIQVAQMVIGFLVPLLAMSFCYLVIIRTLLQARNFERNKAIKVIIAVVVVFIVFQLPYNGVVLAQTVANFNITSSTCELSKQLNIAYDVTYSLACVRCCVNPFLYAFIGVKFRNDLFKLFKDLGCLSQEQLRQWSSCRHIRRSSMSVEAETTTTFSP

Target: C-C chemokine receptor 7 (human (endogenous in Raji)) (UniProt P32248)
Assay: co-IP; Raji cell lysate (RIPA:PMSF 100:1); antibody to CCR7, KMT2D or LGALS9, or IgG, on protein A+G magnetic beads, 4 °C for 6 h; beads washed 3 times with RIPA; Western blot

## LGALS9 (Galectin-9) (from UniProt O00182 1-355)
  binding: binds
